Construct, isoform or probe ends are uncertain for at least one entry.
Tested on: Flag-STAT5
Assay: EMSA
Settings: unlabeled-probe competition and anti-STAT5 supershift described in Methods; LightShift Chemiluminescent RNA EMSA kit reaction buffer (composition and pH not stated), room temperature, 20 min; 4% polyacrylamide gel, 0.5x TBE; recombinant protein; protein details: Flag

Sequence: CGGAGCCTAAAGCTGTTGCTTCGTGGAACTTAGACTAGCGGGAGAATTCAGTGTG (double strand) [Sall3 promoter probe]
- binding result: binds

Reference: publication PMC5550436
